The source of these data is article PMC10510149.

By UniProt entry, the sequences of proteins in these tests, tags left out.
UniProt P35222: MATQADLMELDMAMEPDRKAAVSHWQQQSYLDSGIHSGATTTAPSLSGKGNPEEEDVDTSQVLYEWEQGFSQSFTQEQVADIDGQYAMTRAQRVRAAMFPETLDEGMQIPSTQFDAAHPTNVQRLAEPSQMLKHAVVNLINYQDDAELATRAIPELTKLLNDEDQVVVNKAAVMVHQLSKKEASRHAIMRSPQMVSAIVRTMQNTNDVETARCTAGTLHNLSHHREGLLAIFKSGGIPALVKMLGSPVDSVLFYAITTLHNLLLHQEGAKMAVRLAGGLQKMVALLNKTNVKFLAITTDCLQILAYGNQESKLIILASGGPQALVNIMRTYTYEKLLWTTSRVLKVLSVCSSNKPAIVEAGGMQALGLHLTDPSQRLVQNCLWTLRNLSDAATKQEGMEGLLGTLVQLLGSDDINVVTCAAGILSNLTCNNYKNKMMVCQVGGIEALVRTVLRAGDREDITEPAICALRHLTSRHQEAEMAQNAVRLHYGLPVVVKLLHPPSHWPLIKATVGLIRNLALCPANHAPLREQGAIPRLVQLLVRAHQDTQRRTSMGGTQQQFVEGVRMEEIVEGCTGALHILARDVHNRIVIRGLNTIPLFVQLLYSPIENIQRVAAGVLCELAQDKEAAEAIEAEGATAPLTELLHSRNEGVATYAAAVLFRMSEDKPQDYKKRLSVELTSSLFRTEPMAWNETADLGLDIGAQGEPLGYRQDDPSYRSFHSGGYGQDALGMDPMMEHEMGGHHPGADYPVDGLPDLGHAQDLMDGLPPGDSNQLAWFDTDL
UniProt P45974: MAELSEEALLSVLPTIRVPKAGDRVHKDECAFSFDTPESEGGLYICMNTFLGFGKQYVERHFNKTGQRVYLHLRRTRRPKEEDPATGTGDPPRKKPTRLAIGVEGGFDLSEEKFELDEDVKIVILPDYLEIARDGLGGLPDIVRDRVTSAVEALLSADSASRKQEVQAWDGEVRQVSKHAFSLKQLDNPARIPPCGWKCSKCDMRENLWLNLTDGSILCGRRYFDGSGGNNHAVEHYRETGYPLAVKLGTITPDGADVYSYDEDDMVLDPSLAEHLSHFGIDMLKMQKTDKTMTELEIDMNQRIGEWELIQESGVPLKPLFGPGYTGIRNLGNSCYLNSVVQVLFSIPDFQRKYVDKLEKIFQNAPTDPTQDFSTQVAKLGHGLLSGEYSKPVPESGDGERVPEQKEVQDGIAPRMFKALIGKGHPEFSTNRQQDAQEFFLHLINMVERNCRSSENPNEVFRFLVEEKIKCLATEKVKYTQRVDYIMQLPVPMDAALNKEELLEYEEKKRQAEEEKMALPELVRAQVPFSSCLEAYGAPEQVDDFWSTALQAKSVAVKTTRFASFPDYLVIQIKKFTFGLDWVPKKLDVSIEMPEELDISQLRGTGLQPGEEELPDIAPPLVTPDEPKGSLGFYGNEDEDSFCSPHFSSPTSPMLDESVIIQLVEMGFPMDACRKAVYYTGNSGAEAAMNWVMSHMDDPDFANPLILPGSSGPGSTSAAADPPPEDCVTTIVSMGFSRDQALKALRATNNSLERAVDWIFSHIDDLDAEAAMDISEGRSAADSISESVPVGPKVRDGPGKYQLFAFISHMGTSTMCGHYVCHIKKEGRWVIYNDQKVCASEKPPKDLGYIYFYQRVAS

Assay [1] concerns the target β-catenin (human (endogenous in CL1-5)) (UniProt P35222). The assay is described as follows: co-IP; endogenous proteins in CL1-5 cell extract; IP buffer (0.5% Triton X-100, 137 mM NaCl, 19 mM Tris-HCl, 2.68 mM KCl, 30 mM Na-pyrophosphate, pH 7.4); 1 mg extract with 1 µg antibody or mouse IgG overnight at 4 °C, protein G magnetic beads; both orientations (anti-USP5 IP and anti-β-catenin IP), western blot. A general note: In western blotting, separated proteins are transferred to a membrane and probed.

For assay [2], the target named is ubiquitin-specific peptidase 5 (human (endogenous in CL1-5)) (UniProt P45974). Described as above.

Results are given in words; binding and its absence hold for the method and conditions named. Binding seen in cells or lysates may run through a third protein. Some results given as binding are weak or reduced against the parent protein; the word gives no strength.

Regarding “ubiquitin-specific peptidase 5 (from UniProt P45974 1-858) (enzyme)”, in assay [1], the binding entry was “binds”.
In the case of β-catenin (from UniProt P35222 1-781), the binding entry in assay [2] is given as “binds”.
